Experimental data: US20070213354A1, “Compositions and Methods for the Treatment of Multiple Sclerosis” (AmpliMed Corporation, priority 2006, published 2007)
The amount applied is not stated for every result.

Tested on: neonatal rat myocytes
Test: Cardiotoxicity, neonatal rat myocyte assay (ATP/protein ratio)
Format: cell-based
Details: ratio of the IC50 values for Cardiotox and L1210 sensitive assays

| SMILES | Cardiotox:L1210sens |
| --- | --- |
| CCN1CCCC(N2C(=O)c3cccc4cc5ccccc5c(c34)C2=O)C1 (stereo not drawn) [2-(1-ethyl-3-piperidinyl)] | 13.80 |
| O=C1c2cccc3cc4ccccc4c(c23)C(=O)N1c1cccnc1 [2-(3-pyridyl)] | 45.96 |
| O=C1c2cccc3cc4ccccc4c(c23)C(=O)N1CCc1ccccn1 [2-(CH2)2-2-pyridyl] | 3.88 |
| CN1CCCC1CCN1C(=O)c2cccc3cc4ccccc4c(c23)C1=O (stereo not drawn) [2-(CH2)2-(1-methyl-2-pyrrolidinyl)] | 138.82 |
| O=C1c2cccc3cc4ccccc4c(c23)C(=O)N1CCN1CCCC1 [2-(CH2)2N(CH2)4] | 61.33 |
| O=C1c2cccc3cc4ccccc4c(c23)C(=O)N1CCN1CCCCC1 [2-(CH2)2N(CH2)5] | 203.92 |
| CN(C)CCN1C(=O)c2cccc3cc4ccccc4c(c23)C1=O [2-(CH2)2N(CH3)2] | 283.29 |
| O=C1c2cccc3cc4ccccc4c(c23)C(=O)N1CCNCCO [2-(CH2)2NH(CH2)2OH] | 52.39 |
| CNCCN1C(=O)c2ccc(Cl)c3cc4ccccc4c(c23)C1=O [2-(CH2)2NHCH3; 6-Cl] | 143.40 |
| CNCCN1C(=O)c2ccc(OC)c3cc4ccccc4c(c23)C1=O [2-(CH2)2NHCH3; 6-OCH3] | 197.49 |
| CNCCN1C(=O)c2cccc3cc4ccccc4c(c23)C1=O [2-(CH2)2NHCH3] | 706.00 |
| O=C1c2cccc3cc4ccccc4c(c23)C(=O)N1CCN1CCOCC1 [2-(CH2)2—N-morpholinyl] | 48.83 |
| O=C1c2cccc3cc4ccccc4c(c23)C(=O)N1CCN1CCNCC1 [2-(CH2)2—N-piperazinyl] | 38.58 |
| O=C1c2cccc3cc4ccccc4c(c23)C(=O)N1CCCN(CCO)CCO [2-(CH2)3N(CH2CH2OH)2] | 117.24 |
| CN(C)CCCN1C(=O)c2cccc3cc4ccccc4c(c23)C1=O [2-(CH2)3N(CH3)2] | 211.30 |
| CN(C)c1ccc(N2C(=O)c3cccc4cc5ccccc5c(c34)C2=O)cc1 [2-(p-N(CH3)2)—C6H5)] | 199.53 |
| O=C1c2cccc3cc4ccccc4c(c23)C(=O)N1Cc1ccccn1 [2-CH2-2-pyridyl] | 0.93 |
| O=C1c2cccc3cc4ccccc4c(c23)C(=O)N1Cc1cccnc1 [2-CH2-3-pyridyl] | 13.35 |
| CCN1CCCC1CN1C(=O)c2cccc3cc4ccccc4c(c23)C1=O (stereo not drawn) [2-CH2-(1-ethyl-2-pyrrolidinyl)] | 422.22 |
| Cc1ccc2cc3ccccc3c3c2c1C(=O)N(CCN(C)C)C3=O [*4-CH3] | 25.13 |
| CN(C)CCN1C(=O)c2c(Cl)ccc3cc4ccccc4c(c23)C1=O [*4-Cl] | 90.00 |

| SMILES | Cardiotox:L1210sens |
| --- | --- |
| CN(C)CCN1C(=O)c2c(N)ccc3cc4ccccc4c(c23)C1=O [*4-NH2] | 86.80 |
| CN(C)CCNc1ccc2cc3ccccc3c3c2c1C(=O)N(CCN(C)C)C3=O [*4-NH(CH2)2N(CH3)2] | 3.50 |
| CN(C)CCN1C(=O)c2c(NC(=O)C(C)(C)C)ccc3cc4ccccc4c(c23)C1=O [*4-NHCOC(CH3)3] | 28.57 |
| CC(=O)Nc1ccc2cc3ccccc3c3c2c1C(=O)N(CCN(C)C)C3=O [*4-NHCOCH3] | 40.02 |
| CN(C)CCN1C(=O)c2cc(N)cc3cc4ccccc4c(c23)C1=O [*5-NH2] | 287.33 |
| CN(C)CCN1C(=O)c2cc(NC(=O)C(C)(C)C)cc3cc4ccccc4c(c23)C1=O [*5-NHCOC(CH3)3] | 15.05 |
| CC(=O)Nc1cc2c3c(c4ccccc4cc3c1)C(=O)N(CCN(C)C)C2=O [*5-NHCOCH3] | 9.32 |
| CCc1ccc2c3c(c4ccccc4cc13)C(=O)N(CCN(C)C)C2=O [*6-C2H5] | 42.80 |
| Cc1ccc2c3c(c4ccccc4cc13)C(=O)N(CCN(C)C)C2=O [*6-CH3] | 141.29 |
| CN(C)CCN1C(=O)c2ccc(Cl)c3cc4ccccc4c(c23)C1=O [*6-Cl] | 53.42 |
| CN(C)CCN1C(=O)c2ccc(I)c3cc4ccccc4c(c23)C1=O [*6-I] | 105.06 |
| CN(C)CCN1C(=O)c2ccc(N(C)C)c3cc4ccccc4c(c23)C1=O [*6-N(CH3)2] | 2026.04 |
| CN(C)CCN1C(=O)c2ccc(N)c3cc4ccccc4c(c23)C1=O [*6-NH2] | 297.20 |
| CN(C)CCNc1ccc2c3c(c4cccc(Cl)c4cc13)C(=O)N(CCN(C)C)C2=O [*6-NH(CH2)2N(CH3)2; 8-Cl] | 1075.33 |
| CN(C)CCNc1ccc2c3c(c4ccccc4cc13)C(=O)N(CCN(C)C)C2=O [*6-NH(CH2)2N(CH3)2] | 104825.00 |
| CN(C)CCN1C(=O)c2ccc(NCCO)c3cc4ccccc4c(c23)C1=O [*6-NH(CH2)2OH] | 201.50 |
| CN(C)CCOc1ccc2c3c(c4ccccc4cc13)C(=O)N(CCN(C)C)C2=O [*6-O(CH2)2N(CH3)2] | 27195.00 |
| CCOc1ccc2c3c(c4ccccc4cc13)C(=O)N(CCN(C)C)C2=O [*6-OC2H5] | 222.38 |
| CCCOc1c2ccccc2c2c3c(cccc13)C(=O)N(CCN(C)C)C2=O [*6-OC3H7] | 456.35 |
| COc1ccc2c3c(c4ccccc4cc13)C(=O)N(CCN(C)C)C2=O [*6-OCH3] | 266.33 |
| CN(C)CCN1C(=O)c2ccc(O)c3cc4ccccc4c(c23)C1=O [*6-OH] | 111.04 |

| SMILES | Cardiotox:L1210sens |
| --- | --- |
| CCSc1ccc2c3c(c4ccccc4cc13)C(=O)N(CCN(C)C)C2=O [*6-SC2H5] | 1289.67 |
| CSc1ccc2c3c(c4ccccc4cc13)C(=O)N(CCN(C)C)C2=O [*6-SCH3] | 7500.00 |
| CN(C)CCN1C(=O)c2ccc(S(C)(=O)=O)c3cc4ccccc4c(c23)C1=O [*6-SO2CH3] | 66.14 |
| Cc1c2ccccc2c2c3c(cccc13)C(=O)N(CCN(C)C)C2=O [*7-CH3] | 49.56 |
| CN(C)CCN1C(=O)c2cccc3c(Cl)c4ccccc4c(c23)C1=O [*7-Cl] | 70.11 |
| CN(C)CCN1C(=O)c2cccc3c(N)c4ccccc4c(c23)C1=O [*7-NH2] | 390.20 |
| CN(C)CCNc1c2ccccc2c2c3c(cccc13)C(=O)N(CCN(C)C)C2=O [*7-NH(CH2)2N(CH3)2] | 554.65 |
| CC(=O)Nc1c2ccccc2c2c3c(cccc13)C(=O)N(CCN(C)C)C2=O [*7-NHCOCH3] | 48.49 |
| CCOc1c2ccccc2c2c3c(cccc13)C(=O)N(CCN(C)C)C2=O [*7-OC2H5] | 84.13 |
| CN(C)CCN1C(=O)c2cccc3c(O)c4ccccc4c(c23)C1=O [*7-OH] | 51.05 |
| CSc1c2ccccc2c2c3c(cccc13)C(=O)N(CCN(C)C)C2=O [*7-SCH3] | 8.00 |
| CN(C)CCN1C(=O)c2cccc3cc4c(N)cccc4c(c23)C1=O [*8-NH2] | 12.00 |
| CC(=O)Nc1cccc2c3c4c(cccc4cc12)C(=O)N(CCN(C)C)C3=O [*8-NHCOCH3] | 25.02 |
| CN(C)CCN1C(=O)c2cccc3cc4c([N+](=O)[O-])cccc4c(c23)C1=O [*8-NO2] | 13.00 |
| COc1cccc2c3c4c(cccc4cc12)C(=O)N(CCN(C)C)C3=O [*8-OCH3] | 62.00 |
| CN(C)CCN1C(=O)c2cccc3cc4c(O)cccc4c(c23)C1=O [*8-OH] | 27.31 |
| CN(C)CCN1C(=O)c2cccc3cc4cc(Cl)ccc4c(c23)C1=O [*9-Cl] | 192.75 |
| CN(C)CCN1C(=O)c2cccc3cc4cc(N)ccc4c(c23)C1=O [*9-NH2] | 271.00 |
| CC(=O)Nc1ccc2c3c4c(cccc4cc2c1)C(=O)N(CCN(C)C)C3=O [*9-NHCOCH3] | 4.27 |
| COc1ccc2c3c4c(cccc4cc2c1)C(=O)N(CCN(C)C)C3=O [*9-OCH3] | 48.09 |
| CN(C)CCN1C(=O)c2cccc3cc4cc(O)ccc4c(c23)C1=O [*9-OH] | 80.80 |

| SMILES | Cardiotox:L1210sens |
| --- | --- |
| Cc1ccc2cc3cccc4c3c(c2c1)C(=O)N(CCN(C)C)C4=O [*10-CH3] | 24.49 |
| CN(C)CCN1C(=O)c2cccc3cc4ccc(C#N)cc4c(c23)C1=O [*10-CN] | 7.00 |
| CN(C)CCN1C(=O)c2cccc3cc4ccc(Cl)cc4c(c23)C1=O [*10-Cl] | 154.20 |
| CN(C)CCN1C(=O)c2cccc3cc4ccc(F)cc4c(c23)C1=O [*10-F] | 57.00 |
| CN(C)CCN1C(=O)c2cccc3cc4ccc(I)cc4c(c23)C1=O [*10-I] | 15.34 |
| CN(C)CCN1C(=O)c2cccc3cc4ccc(N)cc4c(c23)C1=O [*10-NH2] | 314.33 |
| CN(C)CCN1C(=O)c2cccc3cc4ccc(NC(=O)C(C)(C)C)cc4c(c23)C1=O [*10-NHCOC(CH3)3] | 55.13 |
| CC(=O)Nc1ccc2cc3cccc4c3c(c2c1)C(=O)N(CCN(C)C)C4=O [*10-NHCOCH3] | 158.90 |
| CN(C)CCN1C(=O)c2cccc3cc4ccc([N+](=O)[O-])cc4c(c23)C1=O [*10-NO2] | 32.04 |
| CCOc1ccc2cc3cccc4c3c(c2c1)C(=O)N(CCN(C)C)C4=O [*10-OC2H5] | 451.68 |
| COc1ccc2cc3cccc4c3c(c2c1)C(=O)N(CCN(C)C)C4=O [*10-OCH3] | 433.48 |
| CN(C)CCN1C(=O)c2cccc3cc4ccc(O)cc4c(c23)C1=O [*10-OH] | 142.80 |
| CN(C)CCN1C(=O)c2cccc3cc4cccc(Cl)c4c(c23)C1=O [*11-Cl] | 4.62 |
| CN(C)CCN1C(=O)c2cccc3cc4cccc(N)c4c(c23)C1=O [*11-NH2] | 39.97 |
| CC(=O)Nc1cccc2cc3cccc4c3c(c12)C(=O)N(CCN(C)C)C4=O [*11-NHCOCH3] | 92.59 |
| CN(C)CCN1C(=O)c2cccc3cc4cccc([N+](=O)[O-])c4c(c23)C1=O [*11-NO2] | 375.96 |
| CN(C)CCN1C(=O)c2cccc3cc4cccc(O)c4c(c23)C1=O [*11-OH] | 81.61 |
| COc1cccc2c1C(=O)c1c(O)c3c(c(O)c1C2=O)C[C@@](O)(C(=O)CO)C[C@@H]3O[C@H]1C[C@H](N)[C@H](O)[C@H](C)O1 [Doxorubicin, reference compound] | 290.03 |
